# Values quoted from earlier work as cited in PMC12349723, “Computationally accelerated identification of P-glycoprotein inhibitors” (PLOS One, 2025).
# Test system: P-gp
# Set-up: method as in earlier work
# Conditions: ref [66-68]; cited from earlier work
compound,measurement,value
CCCCc1oc2ccccc2c1C(=O)c1cc(I)c(OCCN(CC)CC)c(I)c1 [Amiodarone],P-gp Substrate? (known transport substrate of P-gp),Yes
